Values of other authors, collected in US11524014B2, “Pharmaceutical formulations and systems for delivery of an androgenic agent and an aromatase inhibitor with sustained multi-phasic release profiles and methods of use” (Havah Therapeutics Pty Ltd., priority 2019, dated 2022).

Chains of the proteins cited; added tags and fusions are not shown. Lines headed by an entry give the natural chain unless they say otherwise; changes in a name come on top.
UniProt P11511: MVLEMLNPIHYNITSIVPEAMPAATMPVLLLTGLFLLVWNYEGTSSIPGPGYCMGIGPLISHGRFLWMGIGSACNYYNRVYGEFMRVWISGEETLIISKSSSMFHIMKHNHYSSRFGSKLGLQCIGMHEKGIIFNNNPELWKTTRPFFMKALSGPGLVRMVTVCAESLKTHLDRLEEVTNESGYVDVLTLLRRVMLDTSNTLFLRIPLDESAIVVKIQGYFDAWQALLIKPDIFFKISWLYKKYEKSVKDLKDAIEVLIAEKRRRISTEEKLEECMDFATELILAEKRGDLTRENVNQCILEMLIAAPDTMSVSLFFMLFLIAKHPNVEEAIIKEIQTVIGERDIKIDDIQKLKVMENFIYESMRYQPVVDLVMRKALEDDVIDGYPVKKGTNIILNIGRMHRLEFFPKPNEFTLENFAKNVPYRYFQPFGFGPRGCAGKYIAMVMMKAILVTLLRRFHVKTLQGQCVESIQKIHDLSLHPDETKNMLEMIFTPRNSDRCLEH

Biological target: aromatase, JEG3 human choriocarcinoma cell line (Homo sapiens, UniProt P11511)
Conditions: JEG3 human choriocarcinoma cell line overexpressing aromatase; cited from earlier work

CC(C)(C#N)c1cc(Cn2cncn2)cc(C(C)(C)C#N)c1 [Anastrozole, 2,2′-[5-(1H-1,2,4-triazol-1-ylmethyl)-1,3-phenylene]bis(2-methylpropanenitrile)]
IC50: 5.66 nM
